In the supplement of paper PMC10849652:
The other results are listed elsewhere or left out.

Amino acid sequences for entries named in this document (tags omitted). A change or cut given only in a name is not applied to a line headed by its entry.
UniProt Q9UL63, whole entry, looked up: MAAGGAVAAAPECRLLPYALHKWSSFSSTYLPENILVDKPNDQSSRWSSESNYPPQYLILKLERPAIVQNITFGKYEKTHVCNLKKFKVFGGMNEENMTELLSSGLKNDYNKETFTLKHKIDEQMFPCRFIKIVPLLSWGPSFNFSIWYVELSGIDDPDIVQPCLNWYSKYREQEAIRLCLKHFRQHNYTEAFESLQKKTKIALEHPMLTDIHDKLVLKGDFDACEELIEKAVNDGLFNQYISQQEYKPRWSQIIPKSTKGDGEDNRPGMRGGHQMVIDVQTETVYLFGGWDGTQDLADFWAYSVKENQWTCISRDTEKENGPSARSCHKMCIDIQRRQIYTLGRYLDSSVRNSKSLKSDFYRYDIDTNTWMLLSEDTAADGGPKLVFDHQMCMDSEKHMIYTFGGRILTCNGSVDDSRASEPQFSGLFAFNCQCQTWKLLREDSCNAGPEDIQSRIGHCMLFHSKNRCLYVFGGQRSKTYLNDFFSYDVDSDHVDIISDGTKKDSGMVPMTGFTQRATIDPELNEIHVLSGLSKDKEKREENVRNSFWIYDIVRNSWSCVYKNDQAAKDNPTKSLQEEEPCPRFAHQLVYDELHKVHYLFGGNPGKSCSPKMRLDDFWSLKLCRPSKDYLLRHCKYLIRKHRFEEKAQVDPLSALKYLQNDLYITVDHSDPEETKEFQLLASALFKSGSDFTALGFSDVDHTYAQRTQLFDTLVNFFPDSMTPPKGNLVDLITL
UniProt Q7L9L4: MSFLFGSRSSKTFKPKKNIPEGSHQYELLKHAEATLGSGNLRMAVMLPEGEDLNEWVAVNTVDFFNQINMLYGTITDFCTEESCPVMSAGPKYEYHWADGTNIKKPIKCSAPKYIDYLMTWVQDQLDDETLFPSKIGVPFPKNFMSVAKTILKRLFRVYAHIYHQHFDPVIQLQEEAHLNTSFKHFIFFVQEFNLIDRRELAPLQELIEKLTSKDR
UniProt Q86YT6, whole entry, looked up: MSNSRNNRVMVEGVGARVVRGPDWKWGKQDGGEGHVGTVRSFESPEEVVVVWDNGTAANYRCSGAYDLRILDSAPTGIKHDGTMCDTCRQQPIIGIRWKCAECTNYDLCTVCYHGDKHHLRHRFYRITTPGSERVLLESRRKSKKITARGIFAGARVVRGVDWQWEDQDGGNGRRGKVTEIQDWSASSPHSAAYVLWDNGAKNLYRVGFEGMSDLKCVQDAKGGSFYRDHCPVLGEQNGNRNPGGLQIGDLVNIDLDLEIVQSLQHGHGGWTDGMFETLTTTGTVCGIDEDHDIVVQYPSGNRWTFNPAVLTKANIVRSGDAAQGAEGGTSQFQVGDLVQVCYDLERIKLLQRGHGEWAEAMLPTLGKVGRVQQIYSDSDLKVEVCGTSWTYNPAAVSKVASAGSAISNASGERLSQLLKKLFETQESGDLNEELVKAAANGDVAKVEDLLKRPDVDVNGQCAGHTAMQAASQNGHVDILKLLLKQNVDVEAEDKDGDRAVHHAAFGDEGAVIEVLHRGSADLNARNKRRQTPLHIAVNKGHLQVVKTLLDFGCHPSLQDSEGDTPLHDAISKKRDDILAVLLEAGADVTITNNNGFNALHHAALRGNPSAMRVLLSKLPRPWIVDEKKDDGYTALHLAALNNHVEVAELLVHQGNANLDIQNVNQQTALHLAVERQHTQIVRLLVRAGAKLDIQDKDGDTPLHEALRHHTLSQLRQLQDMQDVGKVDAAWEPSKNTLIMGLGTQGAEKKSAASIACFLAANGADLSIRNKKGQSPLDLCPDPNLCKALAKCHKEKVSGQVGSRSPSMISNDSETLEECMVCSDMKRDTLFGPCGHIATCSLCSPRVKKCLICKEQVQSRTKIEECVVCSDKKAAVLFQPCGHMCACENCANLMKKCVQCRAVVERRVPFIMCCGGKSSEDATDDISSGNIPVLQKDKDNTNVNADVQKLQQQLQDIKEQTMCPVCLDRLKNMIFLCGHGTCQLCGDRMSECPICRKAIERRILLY
UniProt Q6IN84: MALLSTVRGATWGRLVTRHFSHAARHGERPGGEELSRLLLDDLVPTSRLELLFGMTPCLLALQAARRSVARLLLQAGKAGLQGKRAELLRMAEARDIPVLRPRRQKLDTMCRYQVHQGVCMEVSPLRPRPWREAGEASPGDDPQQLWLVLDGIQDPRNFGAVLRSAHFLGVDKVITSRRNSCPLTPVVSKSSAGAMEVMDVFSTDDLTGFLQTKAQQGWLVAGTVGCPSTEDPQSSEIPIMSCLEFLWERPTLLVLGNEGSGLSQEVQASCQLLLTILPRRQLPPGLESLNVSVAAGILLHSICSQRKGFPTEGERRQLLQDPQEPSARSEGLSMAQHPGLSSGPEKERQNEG
UniProt P34949: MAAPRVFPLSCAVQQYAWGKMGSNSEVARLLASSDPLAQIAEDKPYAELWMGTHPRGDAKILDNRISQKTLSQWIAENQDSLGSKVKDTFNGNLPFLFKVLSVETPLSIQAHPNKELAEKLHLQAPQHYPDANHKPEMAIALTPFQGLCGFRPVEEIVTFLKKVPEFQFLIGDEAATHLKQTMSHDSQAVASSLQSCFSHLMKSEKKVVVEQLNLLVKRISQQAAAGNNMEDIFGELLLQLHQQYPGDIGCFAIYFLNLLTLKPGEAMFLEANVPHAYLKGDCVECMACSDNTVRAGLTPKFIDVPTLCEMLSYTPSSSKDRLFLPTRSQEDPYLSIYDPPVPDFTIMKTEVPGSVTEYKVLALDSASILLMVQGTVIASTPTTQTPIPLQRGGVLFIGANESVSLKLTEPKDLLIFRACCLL
UniProt Q99735: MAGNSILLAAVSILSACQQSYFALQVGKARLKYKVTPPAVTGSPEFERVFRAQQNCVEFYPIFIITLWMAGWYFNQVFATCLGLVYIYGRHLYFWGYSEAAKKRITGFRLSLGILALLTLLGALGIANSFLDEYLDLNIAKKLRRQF
UniProt Q9H000: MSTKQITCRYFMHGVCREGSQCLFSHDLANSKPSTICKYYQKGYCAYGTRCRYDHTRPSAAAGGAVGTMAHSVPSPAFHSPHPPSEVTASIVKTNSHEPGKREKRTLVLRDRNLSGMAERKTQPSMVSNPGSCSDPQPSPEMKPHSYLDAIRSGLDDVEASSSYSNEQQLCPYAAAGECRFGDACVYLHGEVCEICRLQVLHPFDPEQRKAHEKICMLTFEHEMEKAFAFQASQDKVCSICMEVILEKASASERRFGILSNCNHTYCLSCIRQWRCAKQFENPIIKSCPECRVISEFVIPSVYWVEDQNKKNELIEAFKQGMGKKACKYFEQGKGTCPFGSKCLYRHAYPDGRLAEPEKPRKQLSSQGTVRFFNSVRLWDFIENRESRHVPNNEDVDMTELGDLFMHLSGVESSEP
UniProt Q8N4C8: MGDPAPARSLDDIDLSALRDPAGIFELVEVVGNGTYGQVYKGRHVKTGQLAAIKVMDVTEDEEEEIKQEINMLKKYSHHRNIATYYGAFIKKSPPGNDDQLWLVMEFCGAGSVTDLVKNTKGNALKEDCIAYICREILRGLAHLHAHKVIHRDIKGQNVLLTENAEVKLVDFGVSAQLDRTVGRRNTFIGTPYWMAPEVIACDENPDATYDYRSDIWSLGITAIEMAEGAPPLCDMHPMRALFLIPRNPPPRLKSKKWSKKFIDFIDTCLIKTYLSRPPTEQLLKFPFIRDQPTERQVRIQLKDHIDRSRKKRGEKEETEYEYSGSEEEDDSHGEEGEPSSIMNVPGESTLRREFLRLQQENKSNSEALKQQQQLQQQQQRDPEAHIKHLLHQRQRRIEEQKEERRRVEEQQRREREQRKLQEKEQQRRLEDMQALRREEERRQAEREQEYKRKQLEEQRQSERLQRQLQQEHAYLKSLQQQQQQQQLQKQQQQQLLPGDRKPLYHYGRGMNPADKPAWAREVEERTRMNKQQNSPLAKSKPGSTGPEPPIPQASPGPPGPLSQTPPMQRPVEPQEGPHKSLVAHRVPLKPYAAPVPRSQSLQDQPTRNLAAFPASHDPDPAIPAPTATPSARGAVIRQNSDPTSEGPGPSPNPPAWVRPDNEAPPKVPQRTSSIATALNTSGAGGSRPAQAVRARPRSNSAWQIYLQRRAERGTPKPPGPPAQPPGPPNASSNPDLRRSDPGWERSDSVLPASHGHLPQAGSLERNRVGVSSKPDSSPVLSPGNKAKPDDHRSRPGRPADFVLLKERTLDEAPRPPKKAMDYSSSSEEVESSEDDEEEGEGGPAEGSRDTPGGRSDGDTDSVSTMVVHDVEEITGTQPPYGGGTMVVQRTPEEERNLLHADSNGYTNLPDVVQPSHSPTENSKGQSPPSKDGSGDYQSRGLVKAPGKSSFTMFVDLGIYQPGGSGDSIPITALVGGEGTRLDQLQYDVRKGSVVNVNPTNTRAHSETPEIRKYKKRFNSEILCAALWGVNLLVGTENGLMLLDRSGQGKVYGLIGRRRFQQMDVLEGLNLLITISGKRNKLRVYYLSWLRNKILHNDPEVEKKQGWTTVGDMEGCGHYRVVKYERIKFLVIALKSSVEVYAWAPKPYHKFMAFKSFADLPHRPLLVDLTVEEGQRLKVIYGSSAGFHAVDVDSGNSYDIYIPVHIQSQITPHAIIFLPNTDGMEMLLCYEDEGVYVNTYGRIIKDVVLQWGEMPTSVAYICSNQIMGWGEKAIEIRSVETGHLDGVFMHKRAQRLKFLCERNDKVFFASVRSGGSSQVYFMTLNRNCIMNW
UniProt Q9HAP2: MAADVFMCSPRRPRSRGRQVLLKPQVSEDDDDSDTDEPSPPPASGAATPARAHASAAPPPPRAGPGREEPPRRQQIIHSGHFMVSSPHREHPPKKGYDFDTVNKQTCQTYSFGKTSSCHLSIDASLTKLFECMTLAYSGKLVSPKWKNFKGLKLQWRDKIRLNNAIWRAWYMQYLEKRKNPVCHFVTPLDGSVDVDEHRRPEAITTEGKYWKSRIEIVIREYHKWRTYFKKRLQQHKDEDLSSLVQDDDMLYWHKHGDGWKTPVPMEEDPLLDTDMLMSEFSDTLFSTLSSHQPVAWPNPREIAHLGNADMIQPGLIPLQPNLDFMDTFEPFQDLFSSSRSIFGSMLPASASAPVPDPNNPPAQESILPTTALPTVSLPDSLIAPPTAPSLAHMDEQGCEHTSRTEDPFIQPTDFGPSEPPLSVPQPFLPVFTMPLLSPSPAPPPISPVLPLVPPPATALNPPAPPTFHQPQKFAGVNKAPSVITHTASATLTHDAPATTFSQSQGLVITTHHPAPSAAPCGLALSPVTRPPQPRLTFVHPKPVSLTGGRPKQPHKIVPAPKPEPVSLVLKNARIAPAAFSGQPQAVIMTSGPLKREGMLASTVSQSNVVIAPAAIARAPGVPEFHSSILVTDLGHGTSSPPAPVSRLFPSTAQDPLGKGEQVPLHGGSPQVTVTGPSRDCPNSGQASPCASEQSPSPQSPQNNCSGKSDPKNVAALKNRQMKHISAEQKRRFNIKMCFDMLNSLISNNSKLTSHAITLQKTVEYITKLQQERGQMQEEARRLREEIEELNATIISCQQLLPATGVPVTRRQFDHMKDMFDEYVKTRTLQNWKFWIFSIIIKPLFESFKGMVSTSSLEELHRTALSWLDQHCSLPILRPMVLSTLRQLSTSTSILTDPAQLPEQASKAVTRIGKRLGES
UniProt P29372, whole entry, looked up: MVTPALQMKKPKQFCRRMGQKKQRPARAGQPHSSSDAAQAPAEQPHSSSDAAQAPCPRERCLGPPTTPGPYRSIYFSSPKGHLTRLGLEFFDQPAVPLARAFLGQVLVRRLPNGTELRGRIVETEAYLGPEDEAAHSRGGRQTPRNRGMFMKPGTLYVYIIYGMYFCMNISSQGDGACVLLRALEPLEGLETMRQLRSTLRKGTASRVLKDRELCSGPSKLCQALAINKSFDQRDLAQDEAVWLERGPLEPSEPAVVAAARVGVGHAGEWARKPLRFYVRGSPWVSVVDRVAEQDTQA
UniProt Q13064: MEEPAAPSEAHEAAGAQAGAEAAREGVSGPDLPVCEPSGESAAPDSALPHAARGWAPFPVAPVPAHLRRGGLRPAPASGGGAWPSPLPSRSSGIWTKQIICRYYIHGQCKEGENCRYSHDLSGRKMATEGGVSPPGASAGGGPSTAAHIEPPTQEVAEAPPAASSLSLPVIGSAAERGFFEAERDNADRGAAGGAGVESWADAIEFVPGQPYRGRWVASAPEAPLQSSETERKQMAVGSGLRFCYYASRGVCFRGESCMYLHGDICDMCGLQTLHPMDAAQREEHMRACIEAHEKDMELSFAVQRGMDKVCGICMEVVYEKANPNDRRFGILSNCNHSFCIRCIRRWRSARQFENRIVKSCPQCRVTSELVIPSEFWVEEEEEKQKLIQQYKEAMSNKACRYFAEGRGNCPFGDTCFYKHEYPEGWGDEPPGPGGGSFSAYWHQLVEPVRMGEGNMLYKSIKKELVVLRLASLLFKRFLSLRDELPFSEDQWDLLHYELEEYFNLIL
UniProt Q15773: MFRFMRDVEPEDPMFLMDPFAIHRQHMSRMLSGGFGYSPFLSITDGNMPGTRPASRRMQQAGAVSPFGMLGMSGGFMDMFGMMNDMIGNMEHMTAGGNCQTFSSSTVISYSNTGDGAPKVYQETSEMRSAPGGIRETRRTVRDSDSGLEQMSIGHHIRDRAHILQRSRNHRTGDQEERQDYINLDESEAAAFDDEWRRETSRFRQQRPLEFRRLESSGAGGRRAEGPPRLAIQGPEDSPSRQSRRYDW

Columns and labels:
Assay in all cases: log2 fold change, soluble protein after heating vs DMSO (PISA); higher = thermal stabilisation; K562 lysate, 10 uM; active = over 0.2 and 3.5 SD of the protein, either way, in both replicates (recomputed)
ibrutinib = compound: C=CC(=O)N1CCC[C@@H](n2nc(-c3ccc(Oc4ccccc4)cc3)c3c(N)ncnc32)C1 [ibrutinib]
How it was run: (§1)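 A 30 min treatment with 10 μM compound was applied to crude K562 extract at 1 mg/mL protein in PBS pH 7.4 with 1 mM MgCl2. Heating for 3 min spanned 48°C-58°C, after which aliquots were pooled, adjusted to 0.5% NP-40 at 4°C and spun at 21,000xg for 90 min. TMTpro 16plex LC-MS/MS of the supernatant, with channel sums equalised, gave values recorded as log-two fold change in thermal stability against solvent controls, from duplicates.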

[1] = compound: CC(=O)c1cnc2ccc(-c3cc(Cl)c(O)c(Cl)c3)nc2c1N[C@H]1CC[C@H](CN(C)C)CC1
How it was run: as §1

ralimetinib = compound: CC(C)(C)Cn1c(N)nc2ccc(-c3[nH]c(C(C)(C)C)nc3-c3ccc(F)cc3)nc21 [ralimetinib]
How it was run: as §1

[2] = compound: CC(C)(O)CC(=O)NCCn1ccc2ncnc(Nc3ccc(Oc4cccc(C(F)(F)F)c4)c(Cl)c3)c21
How it was run: as §1

[3] = compound: CC(C)C1=C2N=C(C=C(N2N=C1)NCC3=CC=CC=C3)NCCCCCCN
How it was run: as §1

[4] = compound: CC1=C(C(CC(=O)N1)C2=CC=C(C=C2)C(F)(F)F)C(=O)NC3=C(C=C4C(=C3)C=NN4)F
How it was run: as §1

[5] = compound: CC1=C(C2=C(C=C1)C(=O)C3=CC=CC=C3N2CCCN)C
How it was run: as §1

[6] = compound: CC1=C(C=C(C=C1)NC(=O)C2=CC(=CC=C2)C(C)(C)C#N)NC3=CC4=C(C=C3)N=CN(C4=O)C
How it was run: as §1

[7] = compound: CC1=C(C=C(C=C1)NC(=O)C2=CC(=CC=C2)N(C)C)NC(=O)C3=CC=C(C=C3)O
How it was run: as §1

[8] = compound: CC1=CC=C(C=C1)SC2=C3C=C(SC3=CN=C2)C(=O)N
How it was run: as §1

Measured: log2 fold change

MINDY3 (UniProt Q9H8M7)
inactive: ibrutinib 0.039 | [1] 0.01 | ralimetinib -0.012 | [2] -0.001 | [3] -0.013 | [4] 0.017 | [5] 0.003 | [6] -0.034 | [7] 0.006 | [8] 0.011

MKLN1 (UniProt Q9UL63)
inactive: ibrutinib -0.016 | [1] -0.012 | ralimetinib 0.026 | [2] -0.017 | [3] -0.012 | [4] -0.004 | [5] -0.021 | [6] 0 | [7] 0.006 | [8] -0.008

MOB1B isoform 2 (UniProt Q7L9L4)
inactive: ibrutinib 0.001 | [1] -0.011 | ralimetinib 0.025 | [2] -0.059 | [3] 0.004 | [4] 0.01 | [5] 0.023 | [6] 0.015 | [7] -0.007 | [8] -0.021

MICAL3 (UniProt Q7RTP6)
inactive: ibrutinib 0.039 | [1] 0.008 | ralimetinib -0.014 | [2] -0.032 | [3] 0.003 | [4] 0 | [5] -0.043 | [6] 0 | [7] 0.036 | [8] -0.024

MIB1 (UniProt Q86YT6)
inactive: ibrutinib 0.026 | [1] -0.112 | ralimetinib 0.019 | [2] -0.068 | [3] -0.042 | [4] -0.065 | [5] 0.073 | [6] -0.004 | [7] -0.022 | [8] -0.055

MOCOS (UniProt Q96EN8)
inactive: ibrutinib 0.012 | [1] 0.003 | ralimetinib 0.031 | [2] -0.025 | [3] -0.01 | [4] 0.014 | [5] -0.023 | [6] 0.013 | [7] -0.017 | [8] -0.019

MRM1 (UniProt Q6IN84)
inactive: ibrutinib 0 | [1] -0.085 | ralimetinib 0.023 | [2] -0.085 | [3] 0.017 | [4] 0.013 | [5] -0.018 | [6] 0.022 | [7] -0.024 | [8] -0.041

MLKL (UniProt Q8NB16)
inactive: ibrutinib -0.009 | [1] 0.289 | ralimetinib -0.086 | [2] -0.019 | [3] 0.165 | [4] -0.028 | [6] 0.086 | [7] 0.222 | [8] -0.219

MON1A (UniProt Q86VX9)
inactive: ibrutinib 0.013 | [1] 0.036 | ralimetinib 0.089 | [2] -0.142 | [3] -0.024 | [4] 0.052 | [5] -0.045 | [6] -0.044 | [7] -0.027 | [8] 0.032

MICB, A0A140T979
inactive: ibrutinib 0.074 | [1] 0.317 | ralimetinib -0.037 | [2] -0.101 | [3] -0.07 | [4] -0.11 | [5] -0.002 | [6] 0.016 | [7] 0.004 | [8] -0.068

MPI (UniProt P34949)
inactive: ibrutinib 0.029 | [1] 0.031 | ralimetinib -0.06 | [2] 0.009 | [3] -0.039 | [4] -0.004 | [5] -0.051 | [6] 0.055 | [7] -0.012 | [8] -0.013

MGST2 (UniProt Q99735)
inactive: ibrutinib 0.02 | [1] 0.006 | ralimetinib -0.036 | [2] -0.074 | [3] -0.054 | [4] -0.009 | [5] -0.008 | [6] 0.052 | [7] 0.088 | [8] 0.016

MKRN2 (UniProt Q9H000)
inactive: ibrutinib -0.005 | [1] 0.03 | ralimetinib 0.024 | [2] -0.032 | [3] 0.041 | [4] 0.013 | [5] -0.025 | [6] 0.022 | [7] -0.021 | [8] 0.027

MON2 isoform 5 (UniProt Q7Z3U7)
inactive: ibrutinib -0.027 | [1] 0.001 | ralimetinib 0.017 | [2] -0.042 | [3] -0.02 | [4] 0.012 | [5] 0.002 | [6] 0.01 | [7] 0.025 | [8] 0

MINK1 (UniProt Q8N4C8)
inactive: ibrutinib -0.003 | [1] 0.013 | ralimetinib 0.042 | [2] -0.051 | [3] 0.119 | [4] -0.144 | [5] -0.03 | [6] -0.008 | [7] 0.013 | [8] 0.021

MICU2 (UniProt Q8IYU8)
inactive: ibrutinib 0.036 | [1] -0.095 | ralimetinib -0.019 | [2] -0.026 | [3] -0.016 | [4] -0.019 | [5] -0.004 | [6] 0.012 | [7] -0.018 | [8] 0.013

MIER1 isoform 12 (UniProt Q8N108)
inactive: ibrutinib -0.003 | [1] -0.016 | ralimetinib 0.001 | [2] -0.027 | [3] -0.028 | [4] -0.006 | [5] -0.024 | [6] 0.005 | [7] 0.028 | [8] -0.011

MMADHC (UniProt Q9H3L0)
inactive: ibrutinib 0.007 | [1] -0.004 | ralimetinib -0.017 | [2] -0.036 | [3] 0.048 | [4] 0.013 | [5] -0.037 | [6] 0.027 | [7] -0.008 | [8] -0.031

MRPL23 (UniProt Q16540)
inactive: ibrutinib -0.044 | [1] -0.069 | ralimetinib -0.054 | [2] 0.017 | [3] 0.001 | [4] 0.017 | [5] -0.08 | [6] -0.051 | [7] -0.055 | [8] 0.003

MRNIP (UniProt Q6NTE8)
inactive: ibrutinib 0.125 | [1] 0.002 | ralimetinib -0.054 | [2] -0.023 | [3] 0.044 | [4] -0.116 | [5] -0.063 | [6] 0.078 | [7] 0.089 | [8] -0.063

MLXIP (UniProt Q9HAP2)
inactive: ibrutinib 0.045 | [1] 0.007 | ralimetinib -0.006 | [2] -0.035 | [3] 0.028 | [4] -0.033 | [5] -0.015 | [6] -0.015 | [7] -0.011 | [8] -0.015

MPG (UniProt P29372)
inactive: ibrutinib -0.016 | [1] -0.029 | ralimetinib -0.012 | [2] -0.044 | [3] 0.05 | [4] 0.019 | [5] 0.002 | [6] -0.009 | [7] 0.011 | [8] -0.029

MKRN3 (UniProt Q13064)
inactive: ibrutinib 0.016 | [1] 0.09 | ralimetinib -0.152 | [2] 0.013 | [3] -0.115 | [4] -0.054 | [5] 0.218 | [6] 0.001 | [7] 0.032 | [8] 0.05

MMTAG2 (UniProt Q9BU76)
inactive: ibrutinib 0.097 | [1] 0.01 | ralimetinib 0.001 | [2] -0.009 | [3] -0.055 | [4] -0.06 | [5] -0.069 | [6] 0.054 | [7] 0.038 | [8] 0.042

MRPL1 (UniProt Q9BYD6)
inactive: ibrutinib 0.055 | [1] 0.032 | ralimetinib 0.039 | [2] 0.011 | [3] 0.039 | [4] -0.035 | [5] -0.053 | [6] -0.032 | [7] 0.031 | [8] -0.005

MRPL19 (UniProt P49406)
inactive: ibrutinib 0.067 | [1] 0.027 | ralimetinib 0.034 | [2] -0.057 | [3] 0.029 | [4] -0.021 | [5] 0.01 | [6] -0.013 | [7] 0.023 | [8] -0.002

MRPL2 (UniProt Q5T653)
inactive: ibrutinib -0.001 | [1] -0.058 | ralimetinib 0.044 | [2] -0.035 | [3] -0.023 | [4] 0.012 | [5] -0.091 | [6] 0.011 | [7] 0.031 | [8] 0.037

MIER2 (UniProt Q8N344)
inactive: ibrutinib 0.039 | ralimetinib 0.057 | [2] 0.047 | [3] 0.106 | [5] -0.078 | [7] -0.051

MIER3 isoform 2 (UniProt Q7Z3K6)
inactive: ibrutinib -0.128 | ralimetinib 0.055 | [2] -0.008 | [3] 0.023 | [4] -0.202 | [5] -0.069 | [6] 0.004 | [7] -0.037

MLF2 (UniProt Q15773)
inactive: ibrutinib 0.016 | ralimetinib -0.034 | [2] 0.022 | [3] -0.003 | [4] 0.1 | [5] 0.011 | [6] 0.061 | [7] -0.018

MITF (UniProt O75030)
inactive: ralimetinib 0.043 | [2] 0.012 | [3] 0.064 | [5] 0.053 | [6] -0.018 | [7] 0.01

MR1 (UniProt Q95460)
inactive: ibrutinib -0.026 | [3] -0.059 | [5] -0.252

MOCS3 (UniProt O95396)
inactive: ibrutinib 0.045 | ralimetinib -0.016 | [2] -0.014 | [3] -0.018 | [4] 0.056 | [5] -0.04 | [6] 0.079 | [7] 0.001
